The source of these data is the supplement of paper PMC12009310.

Where a name gives a salt, the structure may show the parent alone. ± gives the standard deviation of the averaged measurements. The list shows a part of the results. Baselines shift from plate to plate; read single values as rough.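 The cells are a mouse kidney inner medullary collecting duct line, silenced either for the ciliary gene Rpgrip1l or with a non-targeting control siRNA.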

The test system of the experiment is mIMCD3. Kind of experiment: robust z score of cell number vs plate controls; higher = more cells (less cytotoxic). The following applies: 10 µM; 48 h; siRNA: siRpgrip1l.
With `CC(C)NCC(O)c1ccc2ccccc2c1` (stereo not given) [Pronethalol hydrochloride], the “robust z score of cell number” value was -2.43 ± 0.59.

As for `O=c1[nH]ccc2c(S(=O)(=O)N3CCCNCC3)cccc12` [HA 1100 hydrochloride], the “robust z score of cell number” value is -3.63 ± 2.1. In the case of `O=C(CCCCCN1C(=O)c2cccc3cccc(c23)C1=O)NO` [Scriptaid], the “robust z score of cell number” value is -30 ± 15. Regarding `CN(C(=O)c1c(O)c2ccccc2n(C)c1=O)c1ccccc1` [Linomide], the “robust z score of cell number” value was -31.1 ± 41. Next, `CC12CC3CC(C)(C1)CC(N)(C3)C2` [Memantine hydrochloride]: 3.34 ± 4; `CC(Oc1ccc(O)cc1)(P(=O)(O)O)P(=O)(O)O`: -2.34 ± 1.4. As to `CN(C)C(=O)C(CCN1CCC(O)(c2ccc(Cl)cc2)CC1)(c1ccccc1)c1ccccc1` [Loperamide hydrochloride], the “robust z score of cell number” value was -53.6 ± 47. `COc1nc(C)nc(Cl)c1NC1=NCCN1` [Moxonidine hydrochloride]: the “robust z score of cell number” value was -3.96 ± 4.4. For `CC(C(=O)O)c1ccc(-c2ccccc2)c(F)c1` (stereo not given) [Flurbiprofen], the “robust z score of cell number” value is -23.8 ± 17. Turning to `CCS(=O)(=O)N(C)[C@H]1c2cc(C#N)ccc2OC(C)(C)[C@@H]1O` (racemic) [Chromanol 293B], the “robust z score of cell number” value is -37.9 ± 49. In the case of `COC(=O)/C=C/c1cc(O)ccc1O` [Methyl 2,5-dihydroxycinnamate], the “robust z score of cell number” value was -85.1 ± 60. Next, `O=C(O)CCCc1ccccc1` [sodium 4-Phenylbutyrate]: -8.85 ± 2; `CC(C)C(=O)c1c(C(C)C)nn2ccccc12` [Ibudilast]: -10.1 ± 6.2. Consider `CC(=Cc1ccc(C(=O)O)cc1)c1ccc2c(c1)C(C)(C)CCC2(C)C`, for which the “robust z score of cell number” value was -39.7 ± 12. The result for `N#Cc1ccc(NCCNCC(=O)N2CCC[C@H]2C#N)nc1` [NVP DPP 728 dihydrochloride] reads -7.6 ± 3.3.
